Results published in PubChem BioAssay AID602441 (National Center for Advancing Translational Sciences (NCATS), 2012).
The campaign covered roughly 1,300 compounds. Fewer than 10 were called active. Not shown: some 9% with an inconclusive outcome. Calls follow the shape of the dose curve; as a rule, active = well fitted curve in the direction sought with a large enough effect; inconclusive = small, poorly fitted or top-dose-only effect, or another doubt; inactive = no such curve, though single readings can be large or run the other way. The list shows a part of the results.

Assay: qHTS for antagonists of the Thyroid Stimulation Hormone Receptor: Hit Validation in Parental Cell Line; also: 0% is about no effect
Conditions: parental HEK293 cells lacking TSHR, counter-screen; series mostly up to 56.9 µM; activity change, negative = inhibition: at the top concentration
Outline: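 Counterscreen in untransfected parental HEK-EM 293 cells. Lysate cAMP displaces cAMP-d2 from cryptate-tagged anti-cAMP antibody, and homogeneous TR-FRET is read at 665 nm with 337 nm excitation after stimulation.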

Row | SMILES | activity change, negative = inhibition
1 | Cc1ccc(C(=O)c2c(NC(=O)c3ccccc3)sc(C)c2C)cc1 | inactive: 1.03%
2 | S=C(Nc1ccc(Oc2ccccc2)cc1)NC1CCCCCC1 | inactive: -4.61%
3 | Nc1ccc(C(=O)NC2CCSc3ccccc32)cc1[N+](=O)[O-] (stereo not given) | inactive: -2.66%
4 | NC(=O)c1ccc(CN2CCc3ccccc3C2)cc1 | inactive: 6.3%
5 | CCCCCC/C(C)=C1/SC(=S)NC1=O | inactive: -0.358%
6 | O=C(NCCc1ccccc1)c1cc2ccccc2oc1=O | inactive: 2.61%
7 | N#CC1=C(C2CC2)CC(c2ccccc2)C(C#N)=C1N (stereo not given) | inactive: -1.46%
8 | CCN(C(=O)CSc1nnc(CNc2cccc(OC)c2)n1C1CCCCC1)C1CCS(=O)(=O)C1 (stereo not given) | inactive: 0.952%
9 | CN(C)S(=O)(=O)c1cccc(-c2nnc(SCc3ccc4c(c3)OCCO4)o2)c1 | inactive: 1.15%
10 | O=C(NCCc1ccc(Cl)cc1Cl)c1cc([N+](=O)[O-])c[nH]c1=O | inactive: -4.69%
11 | O=C(COc1ccc(Cl)cc1)NCc1nnc(SCC(=O)NC2CCCCC2)o1 | inactive: 5.29%
12 | CC(C)c1ccc(OCC(=O)Nc2cccc3c2CCCC3)cc1 | inactive: 4.59%
13 | CCOC(=O)c1cc(C(=O)Nc2sc3c(c2C#N)CCCC3)nn1C | inactive: 3.84%
14 | CC(C)(C)n1ncc2c(=O)n(Cc3ccccc3Br)cnc21 | inactive: 6.76%
15 | Nc1nc(SCc2ccccc2Cl)ns1 | inactive: 0.398%
16 | Cc1ccc(F)cc1CNC(=O)c1cc(COc2ccc3ncccc3c2)on1 | inactive: -2.37%
17 | CC(=O)c1cccc(NS(=O)(=O)c2cc(-c3cnc(C4CC4)o3)ccc2C)c1 | inactive: -0.156%
18 | O=C(Nc1cccc(F)c1)c1ccc(CSc2ccccc2)o1 | inactive: 2.64%
19 | CCOc1cc(NC(=O)C2CC2)c(OCC)cc1NC(=O)c1cccc(F)c1 | inactive: 2.32%
20 | COc1ccccc1CNS(=O)(=O)c1cc(-c2cc(C)no2)ccc1C(C)C | inactive: -0.557%
21 | CCOC(=O)c1c(NC(=O)/C=C/C(=O)O)sc(C)c1-c1ccc(C)c(C)c1 | inactive: 4.1%
22 | Cc1c(Nc2cc(Cl)c3nonc3c2[N+](=O)[O-])c(=O)n(-c2ccccc2)n1C | inactive: -9.16%
23 | COc1ccc(-c2csc3ncn(Cc4ccccc4)c(=O)c23)cc1 | inactive: 0.99%
24 | O=C(NCc1ccccc1)c1c(Cl)nc(Cl)c(Cl)c1Cl | inactive: -11.5%
25 | CCOC(=O)c1c(NC(=O)/C=C/C(=O)O)sc(C)c1-c1ccc(Cl)cc1 | inactive: -1.94%
26 | CS(=O)(=O)Cc1ccc(C(=O)Nc2cccc(-c3nc4ccccc4[nH]3)c2)cc1 | inactive: -7.89%
27 | O=C(Nc1ccc2oc(-c3ccccc3F)nc2c1)c1ccc2c(c1)OCCO2 | inactive: -11%

Row | SMILES | activity change, negative = inhibition
28 | O=c1/c(=C/c2ccc(O)c([N+](=O)[O-])c2)sc2nc3ccccc3n12 | inactive: -4.96%
29 | CS(=O)(=O)c1nc(-c2ccc(Br)cc2)cc(-c2ccccc2)c1C#N | inactive: 6.28%
30 | CCOC(=O)c1c(S(=O)(=O)NCC(=O)Nc2cccc(C)c2C)c(C)n(C)c1C | inactive: 2.95%
31 | CCCC(=O)Nc1nnc(CCc2ccccc2)s1 | inactive: 5%
32 | CCc1ccccc1NC(=O)C1CCCN(S(=O)(=O)c2ccc3c(c2)CC(C)N3C(C)=O)C1 (stereo not given) | inactive: 4.8%
33 | CS(=O)(=O)c1ccc(N2CCN(c3ccccn3)CC2)c([N+](=O)[O-])c1 | inactive: -5.48%
34 | CC1CCN(S(=O)(=O)c2cccc(C(=O)N3CCN(c4ccc(F)cc4)CC3)c2)CC1 | inactive: -5.01%
35 | COc1ccccc1C(=O)NCCC(=O)Nc1ccc(OC(F)(F)F)cc1 | inactive: -0.431%
36 | CC1=C(C(=O)N2CCCC(N3CCN(c4ccccc4C)CC3)C2)OCCO1 (stereo not given) | inactive: -8.67%
37 | Cc1ccc(CCC(=O)NCc2ccccc2)o1 | inactive: 2.01%
38 | Cc1ccc(S(=O)(=O)Nc2ccc(N=Nc3ccc(O)cc3)cc2)cc1 | inactive: -1.29%
39 | CC1=NN(C(N)=S)C(=O)C1N=Nc1ccc(Cl)cc1Cl (stereo not given) | inactive: -1.36%
40 | COc1ccc(-n2c(SCC(=O)Nc3cc(C)on3)nc3c(c2=O)SCC3)cc1OC | inactive: 1.65%
41 | O=C1CSc2nc3ccccc3n21 | inactive: 4.76%
42 | COc1ccc2nc(C)cc(N3CCN(S(=O)(=O)c4ccccc4F)CC3)c2c1 | inactive: -1.34%
43 | O=C(Nc1cc(Sc2nc3ccccc3s2)cc([N+](=O)[O-])c1)c1ccccc1F | inactive: -0.575%
44 | CC(Oc1ccc(Cl)cc1Cl)c1nc(-c2ccc(NC(=O)c3cccnc3)cc2)no1 (stereo not given) | inactive: -8.59%
45 | O=C(c1ccco1)N1N=C(C2CCCCC2)CC1(O)C(F)(F)F (stereo not given) | inactive: 6.07%
46 | O=C(O)c1ccc(CNC(=O)c2ccc3c(c2)C(=O)N(Cc2cccnc2)C3=O)cc1 | inactive: 6.1%
47 | Cc1ccccc1-n1nnnc1SC1CCOC1=O (stereo not given) | inactive: 6.33%
48 | Cc1nn(Cc2ccccc2)c(C)c1NC(=O)c1noc2c1CCc1ccccc1-2 | inactive: 4.71%
49 | COc1ccc2nc(NC(=O)c3ccccc3[N+](=O)[O-])sc2c1 | inactive: -3.72%
50 | O=C(Nc1nc(-c2ccc(Cl)cc2Cl)cs1)c1ccc(OCC2CCCO2)cc1 (stereo not given) | inactive: 4.62%
51 | CCOc1ccc(NS(=O)(=O)c2cc(NC(=O)c3cccc(C)c3)ccc2Cl)cc1 | inactive: 3.25%
52 | O=C(Nc1ccccc1)c1ccc(Br)c(S(=O)(=O)Nc2cccnc2)c1 | inactive: -0.476%
53 | O=C(NC1CCCCC1)c1cc(-c2ccccc2O)on1 | inactive: -7.24%
54 | CC(C)OCCCn1c(=O)c2ccccc2n2c(CCC(=O)NC3CCN(Cc4ccccc4)CC3)nnc12 | inactive: 4.01%

6 entries from above, in markdown:

| Row | SMILES | activity change, negative = inhibition |
| --- | --- | --- |
| 2 | S=C(Nc1ccc(Oc2ccccc2)cc1)NC1CCCCCC1 | inactive: -4.61% |
| 6 | O=C(NCCc1ccccc1)c1cc2ccccc2oc1=O | inactive: 2.61% |
| 20 | COc1ccccc1CNS(=O)(=O)c1cc(-c2cc(C)no2)ccc1C(C)C | inactive: -0.557% |
| 23 | COc1ccc(-c2csc3ncn(Cc4ccccc4)c(=O)c23)cc1 | inactive: 0.99% |
| 30 | CCOC(=O)c1c(S(=O)(=O)NCC(=O)Nc2cccc(C)c2C)c(C)n(C)c1C | inactive: 2.95% |
| 31 | CCCC(=O)Nc1nnc(CCc2ccccc2)s1 | inactive: 5% |

(listing goes on)

Row | SMILES | activity change, negative = inhibition
55 | CSc1nc(N)nc(SCC(=O)Nc2ccc(Cl)cc2)c1C#N | inactive: -1.2%
56 | Cc1nnc(Sc2cc(NCCCO)c([N+](=O)[O-])c3nonc23)s1 | inactive: 3.76%
57 | C#C[C@]1(OC(C)=O)CCC2C3CCC4=CC(=O)CC[C@@H]4C3CC[C@@]21C (stereo not given in full) | inactive: -2.83%
58 | O=C(COc1cccc2ccccc12)Nc1ccc(Cl)cc1C(=O)O | inactive: 3.1%
59 | CCN(CC)S(=O)(=O)c1cccc(NC(=O)CNc2cccc(S(=O)(=O)N3CCOCC3)c2)c1 | inactive: 0.271%
60 | Cc1ccc(O)c(N=Cc2cc(Cc3ccccc3)cc([N+](=O)[O-])c2O)c1 | inactive: 1.98%
61 | Cc1csc2ncnc(N3CCN(S(=O)(=O)c4cccc(C(F)(F)F)c4)CC3)c12 | inactive: -0.152%
62 | O=C1NC(=O)/C(=C/c2ccccc2Oc2ccc(Cl)cc2)S1 | inactive: 0.88%
63 | Cc1cc2c(NCCc3ccccc3)ncnc2s1 | inactive: 3.32%
64 | CSc1cccc(NC(=O)CN2C(=O)COc3ccc(S(=O)(=O)N4CCOCC4)cc32)c1 | inactive: 4.44%
65 | Cc1cc(OCC(=O)Nc2cccc(S(=O)(=O)N3CCCC3)c2)ccc1Cl | inactive: -7.7%
66 | COc1ccc(-c2csc(/C(C#N)=C\c3ccc(O)c([N+](=O)[O-])c3)n2)cc1OC | inactive: -6.65%
67 | COc1ccc(OC)c2c1C(=O)C(Cl)=C(Cl)C2=O | inactive: -19.3%
68 | C#CCn1c(=NC(=O)c2cccs2)sc2cccc(OC)c21 | inactive: 1.74%
69 | CCN(CC)S(=O)(=O)c1cccc(C(=O)Nc2nc3cc4c(cc3s2)OCCO4)c1 | inactive: -8.5%
70 | CSc1nc(-c2ccc(Cl)cc2Cl)[nH]c(=O)c1C#N | inactive: 4.62%
71 | COc1ccc(CCNC(=O)c2ccc(Cl)c(S(=O)(=O)N3CCCCCC3)c2)cc1 | inactive: -4.19%
72 | CC1CCN(c2ccccc2NC(=O)c2cc([N+](=O)[O-])ccc2N2CCOCC2)CC1 | inactive: -2.88%
73 | N#Cc1c(SCc2c(Cl)cccc2Cl)nc(N)[nH]c1=S | inactive: 1.4%
74 | CC(=O)N1c2ccc(S(=O)(=O)NCCC(=O)Nc3cccc(Cl)c3)cc2CC1C (stereo not given) | inactive: 2.87%
75 | O=C1c2cccnc2C(=O)N1Cc1ccc(S(=O)(=O)N2CCN(c3ccc(Cl)cc3)CC2)cc1 | inactive: 2.04%
76 | Cc1ccc(CNC(=O)CCNC(=O)N2CCn3c2nc2ccccc23)cc1 | inactive: 0.477%
77 | Cc1nc2ccccc2n1CCOc1ccccc1 | inactive: 0.231%
78 | C[C@@H](NC(=O)[C@@H]1Cc2ccccc2CN1)C(=O)NC1CCCCC1 | inactive: 2.93%
79 | O=C(OCn1ncc(Cl)c(Cl)c1=O)c1cccc(C(F)(F)F)c1 | inactive: 1.4%
80 | CCc1ccc(N/C(SCc2cccc(F)c2)=C(/C#N)C(=O)NCc2ccco2)cc1 | inactive: 1.73%
81 | CC(=O)Oc1c(C)cc(Cl)cc1C(=O)Nc1ccc([N+](=O)[O-])cc1Cl | inactive: -8.76%

Row | SMILES | activity change, negative = inhibition
82 | COc1ccc(-c2cc(-c3ccccc3)c(C#N)c(S(C)=O)n2)cc1 (stereo not given) | inactive: -7.49%
83 | COc1cccc(C(=O)/C=C/Nc2ccc(S(=O)(=O)Nc3cccc(C(C)=O)c3)cc2)c1 | inactive: -5.83%
84 | Brc1cc2c(cc1/C=N/Nc1nc(N3CCOCC3)nc(N3CCOCC3)n1)OCO2 | inactive: -2.06%
85 | CCc1ccc(-c2nnn(CCC(=O)OC)n2)cc1 | inactive: 3.61%
86 | Cc1ncsc1CCOC(=O)C1C2CC3CC(C2)CC1C3 (stereo not given) | inactive: 1.06%
87 | Cc1ccc(CN2C(=O)c3ccccc3Sc3ccc(C(=O)NCCN4CCOCC4)cc32)cc1 | inactive: -2.87%
88 | Cc1noc(C)c1COc1ccccc1C(=O)N(C)Cc1ccc(C(C)(C)C)cc1 | inactive: -3.32%
89 | Cc1n[nH]c(C)c1S(=O)(=O)N1CCCC(C(=O)N2CCN(c3ccc(Cl)cc3)CC2)C1 (stereo not given) | inactive: -6.59%
90 | CCc1cc(CNC(=O)CC2C(=O)NCCN2Cc2ccc(-c3ccccc3)cc2)on1 (stereo not given) | inactive: -4.34%
91 | O=C(COc1ccc(Cl)cc1Cl)Nc1ccc(C(=O)Nc2ccccc2C(=O)O)cc1 | inactive: -4.74%
92 | O=C(Nc1nc(-c2cccs2)c(-c2cccs2)s1)C1CCCC1 | inactive: -9.24%
93 | O=C(Nc1nnc(C2CC2)s1)c1ccc(Cl)c(S(=O)(=O)N2CCc3ccccc3C2)c1 | inactive: -3.57%
94 | CN(c1cccc(Cl)c1)S(=O)(=O)c1cccc(C(=O)NCc2ccncc2)c1 | inactive: -0.775%
95 | Cc1cc(C)cc(N=C2NC(=O)CS2)c1 | inactive: 4.6%
96 | O=C(OCn1ncc(Cl)c(Cl)c1=O)c1ccccc1Cl | inactive: 0.959%
97 | Cc1ccc(C(=O)Nc2nc(-c3ccc(F)cc3)cs2)o1 | inactive: -5.7%
98 | Cc1ccc(-n2c(Cl)c(Cl)nc(Cl)c2=O)cc1 | inactive: -20.4%
99 | Cc1ccc(S(=O)(=O)N2CCN(C(=O)CCn3cncn3)CC2)cc1 | inactive: 3.02%
100 | CC(=O)c1c(O)cc(O)c(C(C)=O)c1O | inactive: 2.98%
101 | C=CCOc1c(Cl)cc(CNc2ccc(N(C)C)cc2)cc1OC | inactive: -3.21%
102 | Cc1ccc(S(=O)(=O)NCCNS(=O)(=O)c2ccc(C)cc2)cc1 | inactive: 3.85%
103 | O=C1c2cccc3c(O)ccc(c23)C(=O)N1c1ccc(Cl)cc1 | inactive: -7.04%
104 | COc1ccc(N2CCN(C(=O)[C@H](C)NC(=O)c3ccccc3Cl)CC2)cc1 | inactive: 2.13%
105 | O=C(CCc1ccccc1)N1CCN(Cc2ccc(F)cc2Cl)CC1 | inactive: 3.3%
